This data set can be described thus: Transcutaneous laser-induced fluorescence measurement of dye tissue concentration (feasibility study). Particulars: 10 mg/kg i.v., hamster tongue. In kind it is in vivo, Syrian hamsters.

In the case of “chloroaluminum sulfonate phthalocyanine [CASPc]”, the “changes in CASPc concentration (from TFM) versus time compared with tissue concentration after extraction” value was “followed the changes in CASPc tissue concentration very closely”. In addition, for the setting “excitation 610 nm, fluorescence at 684 nm”, the “correlation between the LIF intensity and CASPc concentration as determined after extraction of the dye” value was “positive linear correlation”.

For the origin of these results see patent US20030215391A1, “Fluorescent agents for real-time measurement of organ function” (priority 2003, published 2003).
